Test results taken from PubChem BioAssay AID2551 (National Center for Advancing Translational Sciences (NCATS), 2010).
Values joined by “and” are separate entries in the source; they are usually repeats but may differ in a detail not shown here. Identical values can stand only once. Among all 310,000 compounds or so, about 17,000 (5.5%) were called active. Inconclusive results, whose numbers are uncertain, are shown with a selection of clear calls. The call rests on the fitted dose curve; in most records, active means well fitted inhibition curve with a large enough effect; inconclusive means small, poorly fitted or top-dose-only effect, or effect the other way; inactive means no such curve, though single readings can be large or run the other way. Potencies beside an inconclusive call are fits to weak or partial responses and may not hold up.

Sequences of proteins named here, by UniProt entry; tags and fusion partners are left off. A change or cut given only in a name is not applied to a line headed by its entry.
UniProt P51450: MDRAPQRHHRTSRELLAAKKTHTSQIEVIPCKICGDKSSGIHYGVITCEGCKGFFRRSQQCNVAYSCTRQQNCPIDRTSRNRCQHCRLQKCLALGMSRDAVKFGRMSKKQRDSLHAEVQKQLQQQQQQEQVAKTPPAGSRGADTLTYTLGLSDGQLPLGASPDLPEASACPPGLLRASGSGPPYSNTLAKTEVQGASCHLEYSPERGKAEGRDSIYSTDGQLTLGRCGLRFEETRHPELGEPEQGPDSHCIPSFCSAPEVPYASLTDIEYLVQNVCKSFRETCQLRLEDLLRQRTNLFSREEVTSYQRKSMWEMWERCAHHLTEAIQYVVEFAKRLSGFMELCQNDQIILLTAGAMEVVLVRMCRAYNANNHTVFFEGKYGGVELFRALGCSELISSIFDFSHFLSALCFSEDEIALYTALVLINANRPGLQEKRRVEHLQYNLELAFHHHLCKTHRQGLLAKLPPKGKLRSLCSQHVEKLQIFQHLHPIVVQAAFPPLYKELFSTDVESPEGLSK

What follows are compounds tested against Nuclear receptor ROR-gamma (Mus musculus) (UniProt P51450) (assay: qHTS for inhibitors of ROR gamma transcriptional activity). Conditions: Drosophila S2 Gal4-RORgamma UAS-luciferase reporter, 20 h; activity change, negative = inhibition: at 53.6 µM (top of the series).
Procedure, shortened: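 Luminescence from a UAS-regulated Photinus luciferase reporter in stably transfected Drosophila Schneider cells is measured; decreased signal marks ROR gamma inhibition. Fusion expression is induced by 700 uM copper sulfate for 20 hr.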
Further: nearly all actives have a fitted effect of over 60% in size.
On the % scale 0 is the no-effect control and ±100 the full control effect; potency means the concentration at half of the fitted maximal effect.

Compound	Potency	activity change, negative = inhibition
Cc1ccc(-n2ncc(Br)c(Br)c2=O)cc1	active: 5.01 µM	–
CCN(c1ccccc1)S(=O)(=O)c1ccc2[nH]c(=O)[nH]c2c1	inconclusive: 7.94 µM [activator, partial curve]	–
CC(/C=N/n1c(-c2cc(C)[nH]n2)n[nH]c1=S)=C\c1ccccc1	active: 8.91 µM	–
O=C(c1ccco1)N(Cc1ccc([N+](=O)[O-])cc1)c1ccc(Br)cc1	inconclusive: 12.6 µM [activator, single point]	–
COc1ccc(NC(=S)N/N=C2\CC(C)(C)Oc3ccc(OC)cc32)cc1	active: 1.41 µM	–
COc1ccc(NC(=O)CC(C)NCCCN2CCCC2=O)cc1 (centres undefined)	–	inactive: -2.02%
CCNc1nc2c(c(=O)n(C)c(=O)n2C)n1Cc1ccc(Cl)cc1	inconclusive: 35.5 µM [inhibitor, single point]	–
COc1ccc(Cn2nnnc2C(c2ccccc2Cl)N2CCN(C3CCCC3)CC2)cc1 (centres undefined)	inconclusive: 4.47 µM [inhibitor, partial curve]	–
COc1ccccc1OCc1nc2ccccc2[nH]1	inconclusive: 11.2 µM [activator, partial curve]	–
COCCNC(=O)CN1C(=O)/C(=C/c2ccccc2)Oc2ccc(C(C)(C)C)cc21	–	inactive: 21.7%
COc1ccccc1CN1CC(C(=O)N(C)CCc2nc3ccc(F)cc3[nH]2)CCC1=O (centres undefined)	–	inactive: 17.9%
O=C(Nc1ccccc1)Nc1ccccc1C(=O)NCc1ccccc1	inconclusive: 35.5 µM [activator, single point]	–
CCOc1ccccc1N1CCN(S(=O)(=O)c2cc(C)ccc2OC)CC1	inconclusive: 35.5 µM [inhibitor, single point]	–
CC(=O)c1c(C(C)=O)c(C)n(-c2nc(-c3cccs3)c(C)s2)c1C	–	inactive: 1.26%
COc1ccc(CC2(CO)CCN(S(=O)(=O)c3sccc3C)CC2)cc1	inconclusive: 14.1 µM [activator, single point]	–
CCCCCC(=O)Nc1nc(C)c(-c2csc(Nc3cc(OC)ccc3OC)n2)s1	–	inactive: -0.305%
CCOC(=O)c1sc(NC(=O)COC(=O)Cn2cnc3ccccc32)c(C(=O)OCC)c1C	inconclusive: 0.005 µM [activator, full curve]	–
CCOCCCNC(=O)C(NC(=O)CNC(=O)c1ccccc1)c1ccc(OC)cc1 (centres undefined)	inconclusive: 15.8 µM [inhibitor, single point]	–
COC(=O)[C@@]1(Cc2ccc(OC)cc2)[C@H]2c3cc(C(=O)N4CCCC4)n(Cc4ccc(C)o4)c3C[C@H]2CN1C(=O)c1ccccc1	inconclusive: 35.5 µM [activator, single point] and inconclusive: 20 µM [activator, partial curve, poor fit]	–
CCC1(c2ccc(F)cc2)NC(=O)N(CC(=O)Nc2ccc(S(N)(=O)=O)cc2)C1=O (centres undefined)	–	inactive: 13%
Cc1ccc(-n2c(SCC(=O)Nc3ccc4c(c3)OCO4)nnc2-c2cccs2)cc1	inconclusive: 35.5 µM [inhibitor, single point]	–
COc1ccc(Nc2c3c(nc4ccccc24)CCCC3)cc1OC	–	inactive: -18.5%

Compound	Potency	activity change, negative = inhibition
CCOC(=O)c1sc2nc(CC(=O)OC)nc(NCc3ccco3)c2c1C	–	inactive: -14%
COc1cccc(NC(=O)C2CCC(CNC(=O)[C@@H]3Cc4ccccc4CN3)CC2)c1 (some centres undefined)	–	inactive: -14.7%
NS(=O)(=O)c1ccc(CCNC(=O)CCCCCNc2nc(=S)[nH]c3ccccc23)cc1	inconclusive: 7.08 µM [activator, full curve]	–
O=C(CSc1nnc(-c2ccccn2)o1)Nc1ccccc1	–	inactive: 33.3%
Cc1cc(C)nc(NC2=NCC(=O)N2c2ccc3c(c2)OCCO3)n1	inconclusive: 2.24 µM [activator, partial curve, poor fit]	–
Cc1cc([N+](=O)[O-])nn1CC(=O)NNC(=S)Nc1ccc(Cl)cc1	active: 15.8 µM	–
COc1ccc(C(=O)NC(=S)N2CCCCC2)cc1	–	inactive: -20.6%
Cc1cccc(C(=O)NC2CCN(S(=O)(=O)c3ccc(F)cc3)CC2)c1	inconclusive: 35.5 µM [activator, single point]	–
CCOC(=O)c1c(NC(=O)C2C3CCC(O3)C2C(=O)O)sc(C)c1-c1ccc(F)cc1 (centres undefined)	inconclusive: 3.98 µM [activator, full curve, poor fit]	–
OCCOc1ccc(C2=NCCO2)cc1	inconclusive: 12.6 µM [activator, partial curve]	–
Cc1ccc(NC(=O)CN(C)S(=O)(=O)c2ccc3c(c2)n(C)c(=O)c(=O)n3C)c(C)c1	–	inactive: -1.72%
Cc1[nH]n2c(=O)c3c(nc2c1-c1ccccc1)CCCC3	active: 11.2 µM	–
COc1ccc(C2NC(=S)NC3=C2CCCC3=C2SCCS2)cc1 (centres undefined)	active: 10 µM	–
CCn1c(SCC(=O)c2[nH]c(C)c(C(C)=O)c2C)nnc1-c1cccs1	inconclusive: 11.2 µM [activator, single point]	–
COc1ccc(OC)c(S(=O)(=O)N2CCCC(C(=O)NCCc3ccccc3)C2)c1 (centres undefined)	inconclusive: 3.16 µM [activator, full curve]	–
CC(C)C[C@@H](CC(=O)N[C@H](CC(=O)N[C@@H]1CCNC[C@H]1C(=O)N[C@H](CC(=O)N[C@@H](CCC(=O)O)CC(=O)O)Cc1ccccc1)C(C)C)NC(=O)[C@@H]1CNCC[C@H]1N	–	inactive: 25.9%
COC(=O)NNC(=S)Nc1ccc(Br)cc1	active: 14.1 µM	–
Cc1n[nH]c(C)c1S(=O)(=O)N(CC(=O)Nc1ccc2c(c1)OCCO2)c1ccc(C(C)C)cc1	inconclusive: 12.6 µM [inhibitor, single point]	–
COc1cc2[nH]cc(C(=O)NCCc3ccccc3)c(=O)c2cc1OC	inconclusive: 7.94 µM [activator, partial curve]	–
O=S(=O)(c1ccc(F)c(F)c1F)N1CCN(C(=S)NC2CC3CCC2C3)CC1 (centres undefined)	inconclusive: 35.5 µM [inhibitor, single point]	–
O=c1cc(CSc2nnc3ccccn23)c2c(ccc3ccccc32)o1	inconclusive: 3.16 µM [inhibitor, partial curve]	–
O=C(Nc1ccc2c(c1)OCO2)N1CCN(c2ccccc2Cl)CC1	inconclusive: 0.282 µM [activator, full curve, poor fit]	–
